According to patent US20230094545A1, “S1P RECEPTOR MODULATORS” (AKAAL PHARMA PTY LTD, priority 2020, published 2023):
The name of at least one read-out is uncertain.

Assay: Solubility in water / precipitation in buffer
Format: physicochemical
Conditions: AvignaSOL 1-70% ww %
Description: To solubilize the free base in water the novel technology AvignaSOL (N,N-Dimethyl hexanamide; patent number: U.S. Pat. No. 9,186,338B2) and its higher derivatives such as octinamide, decamide which improve the absorption of various poorly soluble drugs was used. AvignaSOL as 1-70% ww % assisted the solubilization of free base as 1 gm/20 mL of water. The solubility of free base in water assisted its direct use in various formulation such as creams, gels, solutions which together with the permeation enhancing effect will be harnessed to improve skin penetration and/or bioavailability and in altering the pharmacokinetics and pharmacodynamics profile of free base.
The AvignaSOL having a log P of ˜1.6 hinder the release by increasing the hydrophobicity of the delivery system. […] The combination of compound of formula I with other ingredients including sustained release enhancer with or without AvignaSOL were prepared as novel formulation techniques to improve and/or alter the pharmacokinetics and pharmacodynamics profile of compound of Formula I.

**Q.** With `CCCOc1ccc(-c2nc(-c3ccc4oc(C(N)(CO)CO)cc4c3)no2)cc1Cl` [compound of formula I free base] as the compound, how does the “solubilization in water assisted by AvignaSOL” value read?
**A.** 1 gm/20 mL of water
